We go through one substance from US7115730.

The chains behind the UniProt entries cited, without tags or fusion partners. Where a name states a change or a piece, a line headed by the entry shows the natural chain unless it says otherwise. Residues count along the entry.
UniProt P32890, residues 22-124: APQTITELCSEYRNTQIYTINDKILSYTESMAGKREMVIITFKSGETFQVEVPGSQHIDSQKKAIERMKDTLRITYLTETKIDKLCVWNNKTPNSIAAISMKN
UniProt P06717: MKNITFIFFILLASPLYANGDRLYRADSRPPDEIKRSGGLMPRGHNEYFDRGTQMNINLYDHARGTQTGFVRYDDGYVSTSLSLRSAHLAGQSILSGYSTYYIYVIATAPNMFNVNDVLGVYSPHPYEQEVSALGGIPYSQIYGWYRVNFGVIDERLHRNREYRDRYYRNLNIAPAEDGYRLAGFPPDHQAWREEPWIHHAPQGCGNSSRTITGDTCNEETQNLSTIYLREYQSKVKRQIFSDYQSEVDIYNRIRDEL

In this assay the target is E. coli heat labile toxin subunit B (B pentamer) (Escherichia coli) (UniProt P32890). The experiment in a line: gel filtration on Superdex 200HR column, assembly of A subunit with B pentamer.

These are yes or no findings as the source states them, for the method shown. Some results given as binding are weak or reduced against the parent protein; the word gives no strength.

Take “E. coli heat labile toxin subunit A, wild-type (A subunit of wild-type LT) (from UniProt P06717 19-258) (enzyme)”: the binding result is on record as “binds”.
